For 1 molecule, binding results are on record in PMC9722916.

No constants are given. Whether binding was seen depends on the method and setting. Some binding calls cover weakened binding; strength is not graded here. Where a sequence is shown, tags or fusion partners need not be part of it.

This assay has as its target T1, rat TRPV2, C-terminally fused to GFP and a His8-tag (rat), Q9WUD2.
T1 chain: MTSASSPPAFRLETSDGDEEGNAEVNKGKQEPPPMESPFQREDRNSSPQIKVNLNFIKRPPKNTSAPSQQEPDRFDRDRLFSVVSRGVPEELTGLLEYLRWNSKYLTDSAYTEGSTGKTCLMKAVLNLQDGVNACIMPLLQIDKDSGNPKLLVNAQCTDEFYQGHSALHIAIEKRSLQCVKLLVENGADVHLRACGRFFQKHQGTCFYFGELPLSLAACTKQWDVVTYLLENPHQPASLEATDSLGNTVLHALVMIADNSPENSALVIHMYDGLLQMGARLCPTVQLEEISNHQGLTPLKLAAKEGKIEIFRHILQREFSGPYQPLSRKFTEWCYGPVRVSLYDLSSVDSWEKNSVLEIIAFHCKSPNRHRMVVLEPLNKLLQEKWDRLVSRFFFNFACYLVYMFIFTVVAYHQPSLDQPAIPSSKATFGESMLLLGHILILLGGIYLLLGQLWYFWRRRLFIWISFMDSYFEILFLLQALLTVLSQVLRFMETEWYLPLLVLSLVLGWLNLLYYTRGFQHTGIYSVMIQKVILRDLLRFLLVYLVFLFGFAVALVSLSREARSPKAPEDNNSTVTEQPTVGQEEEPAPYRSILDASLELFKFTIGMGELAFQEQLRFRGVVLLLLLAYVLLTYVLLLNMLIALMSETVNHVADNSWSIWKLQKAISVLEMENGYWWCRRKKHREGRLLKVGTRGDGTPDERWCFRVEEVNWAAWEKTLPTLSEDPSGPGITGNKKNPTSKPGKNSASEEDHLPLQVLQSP
Briefly: cryo-EM structure; purified rat TRPV2 in GDN (20 mM Tris 8.0, 150 mM NaCl, 0.4 mg/ml GDN), incubated with C16 (50 uM) and probenecid (2 mM), alone or in combination, at room temperature for 15 min; C4 symmetry (C16 and probenecid structures), C1 symmetry (C16+probenecid structures); both purified. The note with it: remark: other sources report otherwise.

B1: rat TRPV2, C-terminally fused to GFP and a His8-tag, Q9WUD2 1-761 (natural protein)
chain: MTSASSPPAFRLETSDGDEEGNAEVNKGKQEPPPMESPFQREDRNSSPQIKVNLNFIKRPPKNTSAPSQQEPDRFDRDRLFSVVSRGVPEELTGLLEYLRWNSKYLTDSAYTEGSTGKTCLMKAVLNLQDGVNACIMPLLQIDKDSGNPKLLVNAQCTDEFYQGHSALHIAIEKRSLQCVKLLVENGADVHLRACGRFFQKHQGTCFYFGELPLSLAACTKQWDVVTYLLENPHQPASLEATDSLGNTVLHALVMIADNSPENSALVIHMYDGLLQMGARLCPTVQLEEISNHQGLTPLKLAAKEGKIEIFRHILQREFSGPYQPLSRKFTEWCYGPVRVSLYDLSSVDSWEKNSVLEIIAFHCKSPNRHRMVVLEPLNKLLQEKWDRLVSRFFFNFACYLVYMFIFTVVAYHQPSLDQPAIPSSKATFGESMLLLGHILILLGGIYLLLGQLWYFWRRRLFIWISFMDSYFEILFLLQALLTVLSQVLRFMETEWYLPLLVLSLVLGWLNLLYYTRGFQHTGIYSVMIQKVILRDLLRFLLVYLVFLFGFAVALVSLSREARSPKAPEDNNSTVTEQPTVGQEEEPAPYRSILDASLELFKFTIGMGELAFQEQLRFRGVVLLLLLAYVLLTYVLLLNMLIALMSETVNHVADNSWSIWKLQKAISVLEMENGYWWCRRKKHREGRLLKVGTRGDGTPDERWCFRVEEVNWAAWEKTLPTLSEDPSGPGITGNKKNPTSKPGKNSASEEDHLPLQVLQSP
Consider B1, for which the binding result is given as “binds”.
